Reference: PubChem BioAssay AID1159578 (Peter MacCallum Cancer Centre, 2015)

Assay: 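Knock-downs that alter how fast lymphatic endothelial cells migrate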 (primary screen)
Cells: human lymphatic endothelial cells
Reagents: siRNA pool against human genes, 40 nM
Duration: 48 h after transfection
Read-out: 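High-content imaging of dye-stained cells in a scratch assay measures filled wound area and nuclei per well; duplicate means given as ratio to mock and robust z-score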
Scale: migration robust z-score: higher = faster migration into the scratch; nuclei per well: higher = more cells in the well
Call rule: 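Pools averaging fewer than 3300 nuclei are never called; remaining pools count as changed when migration robust z lies outside -2 to 2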
Meaning of the calls: active = migration changed; inactive = no migration change, or too few cells
Here is an unselected part of about 18,000 reagents tested. About 1,030 of them (5.7%) were called active. 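Inactive calls also include pools with fewer than 3300 nuclei, whose migration was not assessed.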 The raw values are shown without normalisation. Not all columns of the deposit are shown. No sequences are given here.

GCC2
- migration robust z-score: -2.05
- nuclei per well, duplicate mean: 5965
- activity call: active

FBXO22
- migration robust z-score: -0.99
- nuclei per well, duplicate mean: 5220
- activity call: inactive

TSPAN15
- migration robust z-score: -0.3
- nuclei per well, duplicate mean: 6770
- activity call: inactive

DDX25
- migration robust z-score: 0.42
- nuclei per well, duplicate mean: 5792
- activity call: inactive

PWP2
- migration robust z-score: -0.78
- nuclei per well, duplicate mean: 6013
- activity call: inactive

ARID5A
- migration robust z-score: -1.23
- nuclei per well, duplicate mean: 5706
- activity call: inactive

SV2A
- migration robust z-score: 1.38
- nuclei per well, duplicate mean: 6208
- activity call: inactive

ZNF19
- migration robust z-score: 1.09
- nuclei per well, duplicate mean: 6837
- activity call: inactive

Reagents above with an active call (1):
GCC2
- migration robust z-score: -2.05
- nuclei per well, duplicate mean: 5965
- activity call: active

The list goes on.
LILRB2
- migration robust z-score: -2.59
- nuclei per well, duplicate mean: 4790
- activity call: active

INKA1
- migration robust z-score: 0.86
- nuclei per well, duplicate mean: 5525
- activity call: inactive

NEMP1
- migration robust z-score: -1.08
- nuclei per well, duplicate mean: 5284
- activity call: inactive

NCF2
- migration robust z-score: 0.99
- nuclei per well, duplicate mean: 5518
- activity call: inactive
